Experimental data published in paper PMC4863620.
Construct, isoform or probe ends are uncertain for at least one entry. A weaker result is weaker than the reference pair of the same experiment.

Legend:
[1] = tested on: LpCSP1 (Lingulodinium polyedrum); assay: competition with a labelled probe; conditions: 1x binding buffer: 10 mM Tris-Cl pH 7.0, 25 mM KCl, 0.5 mM DTT, 10 mM MgCl2, 5% glycerol, 30 min at room temperature, 1 ng probe, 5% native PAGE in 0.5x TBE, recombinant protein, protein details: GST removed by thrombin (pGEX-4T2), label: 5'-32P
[2] = tested on: LpCSP1 (Lingulodinium polyedrum); assay: EMSA; conditions: 10 mM Mg2+, 1x binding buffer: 10 mM Tris-Cl pH 7.0, 25 mM KCl, 0.5 mM DTT, 10 mM MgCl2, 5% glycerol, 30 min at room temperature, 1 ng probe, 5% native PAGE in 0.5x TBE, recombinant protein, protein details: GST removed by thrombin (pGEX-4T2), label: 5'-32P
[3] = tested on: LpCSP2 (Lingulodinium polyedrum); assay: EMSA; conditions: 10 mM Mg2+, 1x binding buffer: 10 mM Tris-Cl pH 7.0, 25 mM KCl, 0.5 mM DTT, 10 mM MgCl2, 5% glycerol, 30 min at room temperature, 1 ng probe, 5% native PAGE in 0.5x TBE, recombinant protein, protein details: GST removed by thrombin (pGEX-4T2), label: 5'-32P

Sequence	binding result ([1]; unlabeled ssDNA 1x-100x against labeled dsDNA N2, 600 ng protein, single-stranded DNA)	binding result ([2]; 100-1000 ng protein, 5 mM KCl-free data not given, single-stranded DNA)	binding result ([3]; 100-1000 ng protein, single-stranded DNA)	binding result ([1]; unlabeled dsDNA 1x-100x against labeled ssDNA N1, 600 ng protein)	binding result ([2]; 300 and 1000 ng protein)	binding result ([3]; 300 and 1000 ng protein)
TCGATCGGGGCGGGGCGATCGGGGCGGGGCGA [ssDNA 32-mer probe]	binds	binds	binds			
GGTGAGGCTGATTGGCTGGGCAGGA (double strand) [Y-box dsDNA 25-mer probe]				binds more weakly	binds more weakly	binds more weakly
